Among all 300,000 compounds or so, about 5,400 (1.8%) were called active. The inconclusive results got no clear call from the source; some entries with a clear call stand among them for comparison. Calls follow the shape of the full dose curve; tested in HEK293 cells. Where the call is inconclusive, the potency comes from a doubtful curve fit.
Test: qHTS for inhibitors of binding or entry into cells for Marburg Virus
Settings: Marburg virus pseudotyped entry inhibition, cell reporter; activity change, negative = inhibition: at 37.8 µM (top of the series) unless noted
In the case of O=[N+]([O-])c1ccc2c(c1)C(c1ccccc1)=NCCN2, the Potency is reported as inconclusive: 2.24 µM [inhibitor, partial curve, poor fit]. In the case of Cc1nn(-c2ccccc2)c2sc(C(=O)N(CC(=O)NC(C)(C)C)Cc3ccco3)cc12, the Potency is reported as inconclusive: 35.5 µM [inhibitor, single point]. In the case of O=C1CC(C(=O)N2CCc3ccccc32)CN1c1cccc(C(F)(F)F)c1 (stereo not drawn), the “activity change, negative = inhibition” value is reported as inactive: -9.76%. In the case of O=Cc1cn(-c2ccccc2)nc1-c1cc2cc(O)ccc2oc1=O, the “activity change, negative = inhibition” value is reported as inactive: 9.28%. In the case of CCOc1ccc(C(=O)NC(=S)N2CCN(c3ccc(C(F)(F)F)cc3[N+](=O)[O-])CC2)cc1, the Potency is reported as inconclusive: 15.8 µM [activator, single point]. For N#C/C(=N\Nc1ccc(Cl)cc1)C(=N)N1CCCCC1, the Potency was inconclusive: 0.1 µM [activator, full curve, poor fit]. In the case of O=C(NNC1=C(C(=O)C(F)(F)F)CCC1)c1cccc(O)c1, the “activity change, negative = inhibition” value is reported as inactive: 0%. For O=C(Nn1c(SCc2cccc([N+](=O)[O-])c2)nc2ccccc2c1=O)c1ccccc1, the Potency was inconclusive: 6.51 µM [inhibitor, full curve, poor fit]. For CC(=O)COc1cc2c(-c3cc4ccccc4o3)cc(=O)oc2cc1C, the Potency was inconclusive: 35.5 µM [inhibitor, single point]. With CC(=O)Nc1ccc(C(=O)OCc2ccc(Cl)cc2)cc1 the Potency was inconclusive: 29.1 µM [inhibitor, single point]. With CC(C)CC1C(=O)N(Cc2cn(Cc3ccco3)nn2)CCS(=O)(=O)N1Cc1ccc(-c2ccccc2)cc1 (stereo not drawn) the Potency was inconclusive: 12.5 µM [inhibitor, partial curve, poor fit]. For COc1cccc(C(=O)Nc2cccc(-c3ccc4nncn4n3)c2)c1OC, the Potency was inconclusive: 7.94 µM [inhibitor, partial curve, poor fit]. For CCc1ccc(N2CC(C(=O)Nc3ccc(S(=O)(=O)N4CCCCC4)cc3)CC2=O)cc1 (stereo not drawn), the Potency was inconclusive: 15.8 µM [inhibitor, single point]. With CCOC(=O)c1cc2c(cn1)[nH]c1ccccc12 the Potency was inconclusive: 2.59 µM [activator, full curve]. With O=C(N/N=C/C=C/c1ccccc1)c1cnccn1 the “activity change, negative = inhibition” value was inactive: 6.22%. For Cn1c(=O)c(C(=O)c2ccccc2)c(O)c2ccccc21, the “activity change, negative = inhibition” value was inactive: 11.2% [at 46.1 µM]. With O=[N+]([O-])c1cc(/C=N/Nc2nc(N3CCOCC3)nc(N3CCOCC3)n2)ccc1Cl the Potency was inconclusive: 1.3 µM [inhibitor, full curve]. With CC(=O)Nc1ccc(NC(=O)C2CCN(c3ccc(C(F)(F)F)cn3)CC2)cc1 the “activity change, negative = inhibition” value was inactive: -9.05% [at 46.1 µM]. For CCSc1ncc(Cl)c(C(=O)N2CCN(c3ccccc3OC)CC2)n1, the Potency was inconclusive: 3.16 µM [inhibitor, single point]. With O=C(O)c1cccc(-c2ccc(/C=N/NC(=O)c3cccnc3)o2)c1 the Potency was inconclusive: 0.291 µM [activator, full curve, poor fit]. In the case of CCOc1ccc(C(=O)N2CCN(c3cnn(-c4ccccc4)c(=O)c3Cl)CC2)cc1, the Potency is reported as inconclusive: 7.08 µM [activator, single point]. In the case of CCCc1nc2ccccc2c(=O)n1-c1ccccc1OC, the Potency is reported as inconclusive: 22.4 µM [inhibitor, single point]. In the case of O=C(N/N=C/c1c[nH]c2ccccc12)c1ccn(Cc2ccc(Cl)cc2Cl)n1, the Potency is reported as inconclusive: 17.8 µM [inhibitor, single point]. In the case of Cc1cc(/C=C2\SC(=Nc3ccc(N4CCOCC4)cc3)N(C)C2=O)c(C)n1-c1cccnc1, the Potency is reported as inconclusive: 3.16 µM [activator, single point]. With Cc1ccc2cccc(Oc3ncnc4scc(-c5ccccc5)c34)c2n1 the Potency was inconclusive: 11.2 µM [inhibitor, partial curve]. In the case of C=CCNc1nc(N)c(C(=O)c2ccc3c(c2)OCO3)s1, the Potency is reported as inconclusive: 3.16 µM [activator, partial curve]. In the case of CCC(=NCCc1c[nH]c2ccccc12)c1c(O)n(C)c(=O)n(C)c1=O, the Potency is reported as inconclusive: 29.1 µM [inhibitor, single point]. In the case of C/C(=C\c1ccccc1)C(=O)NC1CCSC1=O (stereo not drawn), the “activity change, negative = inhibition” value is reported as inactive: 2.77%. With O=C(/C=C/c1cccc([N+](=O)[O-])c1)Nc1cccc(NC(=O)c2ccco2)c1 the Potency was inconclusive: 15.8 µM [inhibitor, single point]. For COc1ccc(CCNc2nc(-c3cccnc3)nc3ccccc23)cc1OC, the Potency was active: 8.91 µM. For CCOC(=O)N1CCN(C(=O)c2ccc3c(=O)n(-c4ccccc4F)c(=S)[nH]c3c2)CC1, the “activity change, negative = inhibition” value was inactive: 12.9% [at 46.1 µM]. For C=C(C)c1ccc(C(C)(C)NC(=O)N(Cc2ccccc2)Cc2ccco2)cc1, the Potency was inconclusive: 7.3 µM [inhibitor, single point]. With C=Cn1cc[n+](CC(=O)c2ccc(-c3ccccc3)cc2)c1 the “activity change, negative = inhibition” value was inactive: 12.4% [at 46.1 µM]. In the case of O=C(c1cccc(Cl)c1)C1CCCN(Cc2cccc3cnccc23)C1 (stereo not drawn), the Potency is reported as inconclusive: 22.4 µM [inhibitor, single point]. In the case of CC1CCCCC1NC(=O)c1ccc(S(=O)(=O)N2CCCC2)cc1 (stereo not drawn), the Potency is reported as inconclusive: 1 µM [inhibitor, partial curve, poor fit]. In the case of COc1cccc(-n2c(N)cc(=O)nc2SCC(=O)Nc2cc(C)on2)c1, the “activity change, negative = inhibition” value is reported as inactive: 20.4%. For Cc1c(Br)c([N+](=O)[O-])nn1CCCC(=O)N1CCN(c2ccccc2)CC1, the Potency was active: 12.6 µM. In the case of Cc1cnc(Sc2ncccc2[N+](=O)[O-])nc1, the Potency is reported as inconclusive: 35.5 µM [activator, single point]. With O=C(O)c1cnc(-c2ccccc2)nc1C(F)(F)F the “activity change, negative = inhibition” value was inactive: 4.76% [at 46.1 µM]. With CN(C)S(=O)(=O)c1cccc(NC(=O)COc2nc3ccccc3nc2N2CCOCC2)c1 the Potency was inconclusive: 35.5 µM [inhibitor, single point]. With COc1cc(Cl)nn(-c2ccccc2)c1=O the Potency was inconclusive: 11.2 µM [activator, partial curve]. For COc1cccc(C(=O)Nc2ccccc2F)c1, the Potency was inconclusive: 8.91 µM [activator, partial curve, poor fit]. In the case of COC(=O)C1=C(C)NC(=O)/C1=C\c1cc(C)n(-c2ccccc2F)c1C, the Potency is reported as inconclusive: 2 µM [inhibitor, single point]. With C=CCNCCOCCOc1ccc(C)cc1Br the Potency was inconclusive: 0.398 µM [activator, partial curve, poor fit]. For O=C(/C=C/c1ccccc1)Nc1cc(-c2nc3cc(Cl)ccc3o2)ccc1Cl, the Potency was inconclusive: 20 µM [activator, partial curve, poor fit]. For CCOc1cccc2cc(C(=O)N3CCc4ccccc4C3)c(=O)oc12, the “activity change, negative = inhibition” value was inactive: 17.6%. With CCn1cc([N+](=O)[O-])c(C(=O)Nc2ccn(C34CC5CC(CC(C5)C3)C4)n2)n1 the Potency was inconclusive: 35.5 µM [activator, single point]. With Cc1ccc(-n2c(C)cc(-c3csc(N)n3)c2C)cc1 the “activity change, negative = inhibition” value was inactive: -18.7%. In the case of COc1cccc2cc(C(C)N(CCCN3CCOCC3)C(=S)Nc3ccc(C)c(C)c3)oc12 (stereo not drawn), the Potency is reported as inconclusive: 0.631 µM [inhibitor, full curve, poor fit]. In the case of CCOC(=O)c1cc(C)sc1NC(=O)CSc1nnnn1C, the “activity change, negative = inhibition” value is reported as inactive: 5.63%. For O=C(O)CCC(=O)NNC(=O)c1cccs1, the “activity change, negative = inhibition” value was inactive: 16.3% [at 46.1 µM]. With CCOc1ccc(-c2nc(-c3ccccc3)c(-c3ccccc3)[nH]2)cc1OCC the Potency was inconclusive: 5.01 µM [inhibitor, partial curve, poor fit]. For CCOC(=O)CSc1nc2cc3c(cc2cc1C)OCO3, the Potency was “inactive”. For CCc1ccc(Oc2nc([N+](=O)[O-])nn2C)cc1, the Potency was inconclusive: 3.55 µM [activator, partial curve, poor fit]. For COc1cc2nc(Nc3cccc(F)c3)nc(N)c2cc1OC, the Potency was inconclusive: 0.794 µM [inhibitor, partial curve, poor fit]. With Cc1cc(N2CCC(C)CC2)nc2ccc(NC(=O)Cc3ccccc3Br)cc12 the Potency was inconclusive: 17.8 µM [activator, single point]. With COc1ccc(/C=C/C(=O)Nc2ccccc2C(F)(F)F)cc1 the Potency was inconclusive: 3.98 µM [activator, partial curve, poor fit]. For CCOC(=O)C1=C(COC(=O)c2cc(S(=O)(=O)N3CCOCC3)ccc2F)NC(=O)NC1C (stereo not drawn), the Potency was inconclusive: 0.891 µM [inhibitor, full curve, poor fit]. In the case of Cn1c(=O)c2c(nc(N/N=C/c3cccs3)n2Cc2ccccc2)n(C)c1=O, the “activity change, negative = inhibition” value is reported as inactive: -17.5%. For c1ccc(SCc2nc(-c3cccnc3)no2)cc1, the Potency was inconclusive: 1.58 µM [activator, partial curve, poor fit]. For NC(=O)c1ccsc1NC(=O)COC(=O)CCCOc1ccccc1, the Potency was inconclusive: 0.708 µM [inhibitor, single point]. For O=C(CSc1cccc[n+]1[O-])Nc1cc(Cl)ccc1[N+](=O)[O-], the “activity change, negative = inhibition” value was inactive: 29.9%. With CC1=C(C#N)C(c2ccccc2)C2=C(N1)c1ccccc1C2=O (stereo not drawn) the Potency was inconclusive: 1.64 µM [inhibitor, full curve]. In the case of COc1ccc(Cl)cc1Nc1nc(-c2cccnc2)cs1, the Potency is reported as inconclusive: 4.47 µM [inhibitor, partial curve]. With CCOC(=O)C1CCCN(C(=O)c2ccc(Cl)c(S(=O)(=O)N3CCCCC3)c2)C1 (stereo not drawn) the Potency was inconclusive: 12.6 µM [inhibitor, single point]. With CCOC(=O)C1=C(C)NC(C)=C(C(=O)OCC)C1c1c(F)c(F)c(F)c(F)c1F the Potency was inconclusive: 25.9 µM [inhibitor, single point]. In the case of COc1ccc(/C=N/NC(=O)c2cccc(Br)c2)cc1Cn1cc(Cl)cn1, the Potency is reported as active: 7.08 µM. For COc1ccc(/C=N/NC(=O)CNS(=O)(=O)c2ccccc2)cc1, the “activity change, negative = inhibition” value was inactive: 29.5%.

From PubChem BioAssay AID540276 (National Center for Advancing Translational Sciences (NCATS), 2011)
% is scaled to controls: 0 for no effect and ±100 for the full control effect; potency is read from the fitted curve at half-maximal effect.
